{"source": "patent US20200230100A1", "about": "“AGONIST OF 67 KDA LAMININ RECEPTOR AND UTILIZATION THEREOF” (priority 2017, published 2020)", "system": "U266", "assay": "Anti-cancer activity enhancing action by PDE5 inhibitor vardenafil (ATPlite cell viability, isobologram analysis)", "format": "cell-based, human", "note": "For at least one compound, name, drawing or mass did not settle the structure.", "data": [{"compound": "CCCc1nc(C)c2c(=O)[nH]c(-c3cc(S(=O)(=O)N4CCN(CC)CC4)ccc3OCC)nn12", "note": "[vardenafil]", "values": [{"measurement": "combined use of OHBFB and vardenafil (isobologram analysis)", "value": "synergistically enhances the anti-cancer activity of OHBFB"}]}]}
